# Data published in the M2OR odorant receptor database.
# This is a selection; strong and weak results do not stand in their true shares. The calls were merged from several studies; some rest on single wells.
# Target: T1, OR5H1 (Homo sapiens) (UniProt A6NKK0)
# T1 sequence (whole entry): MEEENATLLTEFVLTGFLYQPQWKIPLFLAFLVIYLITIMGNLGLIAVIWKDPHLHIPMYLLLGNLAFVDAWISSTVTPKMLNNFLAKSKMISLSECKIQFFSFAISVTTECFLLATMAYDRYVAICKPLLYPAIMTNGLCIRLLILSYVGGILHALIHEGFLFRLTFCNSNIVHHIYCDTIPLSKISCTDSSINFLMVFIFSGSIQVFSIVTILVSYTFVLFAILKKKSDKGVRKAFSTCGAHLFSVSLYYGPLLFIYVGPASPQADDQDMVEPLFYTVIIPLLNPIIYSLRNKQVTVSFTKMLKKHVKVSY
# Details: stereoisomer not certain
# How it was run: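 Assay methods differ from source to source, frequently being transient luciferase assays in mammalian cell lines. For each receptor–molecule pair, the label responsive (active) applies when the original authors judged the measured signal statistically different from baseline, and non-responsive (inactive) applies otherwise.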
row,SMILES,odorant receptor agonist call
1,O=C1CCCCC1,inactive
2,COC(=O)c1ccccc1O,inactive
3,CC1CCC(C(C)C)C(O)C1 (centres undefined),active
4,CC12C=CCC1C1CCC3=CC(=O)CCC3(C)C1CC2 (centres undefined),inactive
5,c1ccc(Oc2ccccc2)cc1,inactive
6,CC(C)CC(=O)O,inactive
7,CCCCCCCCCCC=O,inactive
8,O=C1CCCCCCCCCCCC(=O)OCCO1,inactive
9,CC1=NC(C)SC1C (centres undefined),inactive
10,CCCCCC(C)=O,inactive
11,CC12CCC(CC1)C(C)(C)O2,inactive
12,O=CCc1ccccc1,inactive
13,CC(=O)C(C)=O,inactive
14,CC(C)CCC(=O)O,inactive
15,CC(C)C=O,inactive
16,CC12C=CCC1C1CCC3CC(=O)CCC3(C)C1CC2 (centres undefined),inactive
17,c1cnccn1,inactive
18,C=CCSCC=C,inactive
19,COC(=O)c1ccccc1,inactive
20,CCCC(=O)O,inactive
21,COc1cc(C)ccc1O,inactive
22,CCC=CCCO,inactive
23,CC(C)C(=O)O,inactive
24,CC(=O)OCC=C(C)CCC=C(C)C,inactive

# Looked up above.
# odorant receptor agonist call, `O=C1CCCCCCCCCCCC(=O)OCCO1` is entered as inactive
# odorant receptor agonist call, `CC(C)CCC(=O)O` is entered as inactive
